In paper PMC10620822:
Results are given in words; binding and its absence hold for the method and conditions named. Binding seen in cells or lysates may run through a third protein. Some entries that bind do so weakly or less than the wild type. Each block holds one substance with its values, some of them ahead of it.

What was measured:
Flag-YY1 = Flag-YY1 (UniProt P25490); test: co-IP; HEK293T cells co-transfected with Flag- and HA-tagged CENPA and YY1 (or Flag-YY1 truncations with HA-CENPA)
Flag-CENPA (human) = Flag-CENPA (human) (UniProt P49450); test: as above
[1] = target: endogenous CENPA (Huh7) (human (endogenous in Huh7)) (UniProt P49450); test: co-IP; endogenous proteins, whole-cell lysate from Huh7 cells, IgG as control

binding (Flag-YY1): binds
Substance: HA-CENPA (from UniProt P49450 1-140)

binding (Flag-CENPA (human)): binds
Substance: HA-YY1 (from UniProt P25490 1-414)

binding [1]: binds
Substance: endogenous YY1 (Huh7) (from UniProt P25490 1-414)
